Measurements reported in PubChem BioAssay AID1259425 (University of Nebraska Medical Center, 2018).

Assay: 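Find knockdowns that reproduce the gene expression pattern seen when KSR1 is lost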 (primary screen)
Cells: HCT116 human colon cancer cells
Reagent: siRNA pool against human genes, 50 nM siRNA
Measured: 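After 50 nM siRNA pool, branched-DNA assay measures six marker transcripts per well, minus blank, normalised to the geometric mean of two housekeeping transcripts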
Scale: BNIP3L mRNA: higher = more BNIP3L transcript after knockdown; NDRG1 mRNA: higher = more NDRG1 transcript after knockdown; BNIP3 mRNA: higher = more BNIP3 transcript after knockdown; ALDOC mRNA: higher = more ALDOC transcript after knockdown; ACSL5 mRNA: higher = more ACSL5 transcript after knockdown
In all, the deposit lists about 14,000 reagents; this is an unselected part. No sequences are given here. Not given: the time to read-out.

| BNIP3L mRNA, set 1 | NDRG1 mRNA, set 1 | BNIP3 mRNA, set 1 | ALDOC mRNA, set 1 | ACSL5 mRNA, set 1 | Target gene |
| --- | --- | --- | --- | --- | --- |
| 0.0844 | 0.196 | 0.238 | 0.0211 | 0.0697 | H4C1 |
| 0.0532 | 0.229 | 0.3 | 0.0217 | 0.259 | PRTFDC1 |
| 0.159 | 0.183 | 0.229 | 0.0234 | 0.172 | FLOT1 |
| 0.143 | 0.261 | 0.577 | 0.0344 | 0.147 | CFAP61 |
| 0.409 | 0.0636 | 0.625 | 0.0421 | 0.0792 | PYY2 |
| 0.173 | 0.456 | 0.459 | 0.0933 | 0.283 | PTGER2 |
| 0.0736 | 0.181 | 0.346 | 0.0154 | 0.202 | CD300A |
| 0.146 | 0.441 | 0.296 | 0.0133 | 0.19 | PTN |
| 0.112 | 0.245 | 0.39 | 0.0405 | 0.494 | INTS15 |
| 0.0974 | 0.516 | 0.322 | 0.0138 | 0.293 | ASB4 |
| 0.0701 | 0.0944 | 0.298 | 0.0332 | 0.105 | EEF1G |
| 0.0577 | 0.435 | 0.287 | 0.0146 | 0.119 | CERS2 |
| 0.11 | 0.131 | 0.199 | 0.0158 | 0.268 | S1PR5 |
| 0.161 | 0.283 | 0.225 | 0.0617 | 0.115 | SNRPD1 |
| 0.0946 | 0.0937 | 0.278 | 0.0355 | 0.0967 | ZFAND6 |
| 0.0932 | 0.16 | 0.58 | -0.00336 | 0.258 | ADAMTS14 |
| 0.0615 | 0.107 | 0.147 | 0.0191 | 0.0839 | SWT1 |
| 0.189 | 0.432 | 0.604 | 0.0225 | 0.251 | KHSRP |
| 0.0951 | 0.118 | 0.314 | 0.0248 | 0.122 | PTPRCAP |
| 0.158 | 0.101 | 0.289 | 0.0396 | 0.105 | SPSB3 |

8 of these entries, set out differently:
"BNIP3L mRNA, set 1","NDRG1 mRNA, set 1","BNIP3 mRNA, set 1","ALDOC mRNA, set 1","ACSL5 mRNA, set 1",Target gene
0.146,0.441,0.296,0.0133,0.19,PTN
0.112,0.245,0.39,0.0405,0.494,INTS15
0.0974,0.516,0.322,0.0138,0.293,ASB4
0.0701,0.0944,0.298,0.0332,0.105,EEF1G
0.0577,0.435,0.287,0.0146,0.119,CERS2
0.11,0.131,0.199,0.0158,0.268,S1PR5
0.161,0.283,0.225,0.0617,0.115,SNRPD1
0.0946,0.0937,0.278,0.0355,0.0967,ZFAND6

Continued.
| BNIP3L mRNA, set 1 | NDRG1 mRNA, set 1 | BNIP3 mRNA, set 1 | ALDOC mRNA, set 1 | ACSL5 mRNA, set 1 | Target gene |
| --- | --- | --- | --- | --- | --- |
| 0.0768 | 0.264 | 0.357 | 0.0805 | 0.131 | SH3BGRL |
| 0.0595 | 0.121 | 0.263 | 0.0153 | 0.155 | MOSPD3 |
| 0.118 | 0.242 | 0.21 | 0.0676 | 0.183 | CD28 |
| 0.123 | 0.103 | 0.231 | 0.00931 | 0.122 | CDH1 |
| 0.0385 | 0.257 | 0.257 | 0.0165 | 0.236 | EPHB6 |
| 0.0604 | 0.123 | 0.187 | 0.0127 | 0.134 | CDH8 |
| 0.0937 | 0.15 | 0.274 | 0.0408 | 0.104 | PLEKHO2 |
| 0.188 | 0.142 | 0.364 | 0.0376 | 0.17 | LY6K |
| 0.165 | 0.103 | 0.191 | 0.0582 | 0.499 | YIPF4 |
| 0.419 | 0.423 | 0.568 | 0.124 | 0.585 | IMMP2L |
| 0.106 | 0.214 | 0.337 | 0.0239 | 0.213 | PPP6R3 |
| 0.093 | 0.0795 | 0.264 | 0.0195 | 0.129 | CABYR |
| 0.0877 | 0.11 | 0.231 | 0.0179 | 0.151 | CCNJ |
| 0.121 | 0.314 | 0.269 | 0.0167 | 0.232 | RGS14 |
| 0.159 | 0.319 | 0.209 | 0.0512 | 0.201 | MRM1 |
| 0.102 | 0.57 | 0.48 | 0.0448 | 0.45 | POLK |
| 0.14 | 0.112 | 0.298 | 0.0863 | 0.165 | LOXL4 |
| 0.0674 | 0.658 | 0.213 | 0.0201 | 0.4 | PPP1R9B |
| 0.0988 | 0.218 | 0.363 | 0.0176 | 0.195 | STK26 |
| 0.0678 | 0.0976 | 0.382 | 0.0228 | 0.206 | TMEM184C |
| 0.0719 | 0.213 | 0.341 | 0.0396 | 0.178 | MRPL24 |
| 0.0659 | 0.272 | 0.407 | 0.0346 | 0.166 | COQ10B |
| 0.16 | 0.116 | 0.406 | 0.0251 | 0.15 | EPS8L1 |
| 0.146 | 0.0874 | 0.331 | 0.0171 | 0.203 | FOXD1 |
| 0.0887 | 0.104 | 0.433 | 0.02 | 0.123 | COL11A2 |
| 0.149 | 0.153 | 0.236 | 0.0387 | 0.175 | IL1B |
| 0.123 | 0.117 | 0.272 | 0.0197 | 0.191 | IGSF9B |
| 0.288 | 0.091 | 0.362 | 0.0272 | 0.0489 | RPP25 |
| 0.346 | 0.888 | 0.75 | 0.158 | 0.736 | SCNM1 |
| 0.09 | 0.0935 | 0.188 | 0.0275 | 0.221 | LMO7 |
